# Source: article PMC7819943, “Rice protein-binding microarrays: a tool to detect cis-acting elements near promoter regions in rice”
# Protein sequences, listed by entry. Tags and fused reporters are not part of them.
# UniProt Q0JBA9, entry or part of it: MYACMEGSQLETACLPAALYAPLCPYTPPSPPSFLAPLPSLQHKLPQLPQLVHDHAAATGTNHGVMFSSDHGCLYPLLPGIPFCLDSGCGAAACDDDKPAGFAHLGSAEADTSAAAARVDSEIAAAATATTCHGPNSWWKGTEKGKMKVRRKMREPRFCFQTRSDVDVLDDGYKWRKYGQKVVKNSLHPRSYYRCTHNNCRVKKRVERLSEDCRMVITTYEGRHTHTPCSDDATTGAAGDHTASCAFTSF
# This is one part of the list.
# Target: OsWRKY34 (Oryza sativa, UniProt Q0JBA9 1-250)
# Assay: protein-binding microarray (RPBM); PBS, 2% BSA, 51.3 ng/ul salmon testes DNA, 50 uM zinc acetate, 200 nM TF, 25 C, 1 h; high values mean tight binding
# Conditions: protein: recombinant; tags: N-terminal polyhistidine and DsRed monomer fusion (pET32a); label: CyDye5-dUTP incorporated in the synthesized complementary strand; 3' TTTTT single-stranded linker to array surface; dsDNA, one strand shown
# Summary of the method: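 Polyhistidine-tagged DsRed fusions of transcription factors, joined at the N-terminus, were expressed in E. coli BL21-CodonPlus and isolated on Ni–NTA. They were incubated at 200 nM for 1 h at 25 °C on a custom Agilent array, double-stranded and BSA-blocked, in PBS with 2% BSA, salmon testes DNA and 50 µM zinc acetate. The binding signal is per-feature fluorescence intensity (arbitrary units) read on an Axon 4000B scanner after washing.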
row,Sequence,binding signal
1,GGGTTTCTTTCCAACTTTTTTTTTGTTGTTGTTGCTCTCCCGGAGTCACCTAGTGCAG,10700 fluorescence intensity (a.u.)
2,TCAAACTTTCAAATTTCCATCACATCAAACCTTTCATACCCGGAGTCACCTAGTGCAG,8390 fluorescence intensity (a.u.)
3,TATAAAGCGTGACATTCTATTCTTACATTTTTTACATCGTCGGAGTCACCTAGTGCAG,8120 fluorescence intensity (a.u.)
4,CGCCGCTCCCGCCGCCCACCGCCTGCCGCCGCTCCCACCGCGGAGTCACCTAGTGCAG,8890 fluorescence intensity (a.u.)
5,AGATTACCTTTACTCTACTTATCTCAATTTTTTTAATCTTCGGAGTCACCTAGTGCAG,8240 fluorescence intensity (a.u.)
6,TTCTCGGGGTATACTTTCATTCTCCCGATTCTATTAGATGCGGAGTCACCTAGTGCAG,8720 fluorescence intensity (a.u.)
7,ATGACCCCTTGATTGCATAACACACATACTAGGTCATACTCGGAGTCACCTAGTGCAG,9110 fluorescence intensity (a.u.)
8,CGCCGCCGCCACCGGGCCCGCCACCGCCGCACCAGCCGCACGGAGTCACCTAGTGCAG,10700 fluorescence intensity (a.u.)
9,CCACGTAAGTTTATAGTAGGTTTACGCTGTCTCTCTTCTCCGGAGTCACCTAGTGCAG,8910 fluorescence intensity (a.u.)
10,TTTTTTGATTTTTTCGGTCCGCTCTGTAAATACTTTTATTCGGAGTCACCTAGTGCAG,11300 fluorescence intensity (a.u.)
11,TTGTCGGGTAAAATTTTCTTGTACTTTCTTGGGATGCAATCGGAGTCACCTAGTGCAG,10600 fluorescence intensity (a.u.)
12,TGTAAGGGTGTGGTTAGGTTGGGAGTACGTTCCTTTTGTCCGGAGTCACCTAGTGCAG,11500 fluorescence intensity (a.u.)
13,ATCGGTCCCTTGTCCGTTGTGCTCGATGGGCTCCTCCGCCCGGAGTCACCTAGTGCAG,9600 fluorescence intensity (a.u.)
14,TTTTTCCTGTGGTCTAATCAAACGGTCATTCCTATATTTTCGGAGTCACCTAGTGCAG,10100 fluorescence intensity (a.u.)
15,GGAGATCTCTATCACCTCCTCGCCGACGTCGGCCGCGCCGCGGAGTCACCTAGTGCAG,9370 fluorescence intensity (a.u.)
16,TCACTACCCATGTTTGGTTCCCGGCTGGCTCAAATTTTGTCGGAGTCACCTAGTGCAG,9580 fluorescence intensity (a.u.)
17,TCTTCTGTTCATCCATTTTGTTTTGGATTCCCTTTTCATCCGGAGTCACCTAGTGCAG,12500 fluorescence intensity (a.u.)
18,AGGATTTATTGTGTATTTACCAACAGGCCCTTAATATATTCGGAGTCACCTAGTGCAG,8160 fluorescence intensity (a.u.)
19,AATACTTAATTAATCATGTGCTAGCCCTTGCTTCATTTTACGGAGTCACCTAGTGCAG,8550 fluorescence intensity (a.u.)
20,TATAAGTCGTTTTACTTTTTTCCTTGACCAAGTTTAACCACGGAGTCACCTAGTGCAG,8200 fluorescence intensity (a.u.)
21,CCTTGTCATCCACCGCGCCCACCCGCCCGGCACCCGCACACGGAGTCACCTAGTGCAG,12100 fluorescence intensity (a.u.)
22,GCTAGTTCATCCTGTCGCCAACGTGCCAGTCTCTGTCTGACGGAGTCACCTAGTGCAG,9370 fluorescence intensity (a.u.)
23,ATTGCAGCTGCCTTTTCTCCACTGAATTCTACTCCATTCTCGGAGTCACCTAGTGCAG,8460 fluorescence intensity (a.u.)
24,CTCTCCCGGATCACACGACACCCACCGTTTGCCTACTTTTCGGAGTCACCTAGTGCAG,13400 fluorescence intensity (a.u.)
25,TTCGCTCATTTCCATTGGACGCAGCCAACTCCGCGTCCGCCGGAGTCACCTAGTGCAG,8310 fluorescence intensity (a.u.)
26,ATGTATGGCCTGGTTTAGTTCCCCAGCTTTTTTCCCTAAACGGAGTCACCTAGTGCAG,9740 fluorescence intensity (a.u.)
27,CCTACTCTTGATTATGGTGCTTTTGTTTTGCGCTTATTTCCGGAGTCACCTAGTGCAG,14600 fluorescence intensity (a.u.)

# Reformatted bar-delimited: part of the list above.
row | Sequence | binding signal
20 | TATAAGTCGTTTTACTTTTTTCCTTGACCAAGTTTAACCACGGAGTCACCTAGTGCAG | 8200 fluorescence intensity (a.u.)
21 | CCTTGTCATCCACCGCGCCCACCCGCCCGGCACCCGCACACGGAGTCACCTAGTGCAG | 12100 fluorescence intensity (a.u.)

# The list goes on.

row,Sequence,binding signal
1,AAGTGTGATTTCCTCGTTAGTTCGATACGTTTCACGTTTGCGGAGTCACCTAGTGCAG,8240 fluorescence intensity (a.u.)
2,ATCTCGCCTCTTTGCGCTTTCGCTGGAACCCTATTTCTCCCGGAGTCACCTAGTGCAG,13600 fluorescence intensity (a.u.)
3,TCCGCGCTTCTTCCACCCGATCGCGCCTCTCCCTCACGCACGGAGTCACCTAGTGCAG,10000 fluorescence intensity (a.u.)
4,CCCTTCCCCACGTGTTCTCCTCTTCCCCGCCACGACGAAGCGGAGTCACCTAGTGCAG,8210 fluorescence intensity (a.u.)
5,CACCAATCACTGGGCCCGGCCGTACGTATCTCTTGTTCTCCGGAGTCACCTAGTGCAG,9750 fluorescence intensity (a.u.)
6,GGGTATGCTGTGGGCCAGAGGGGTGTGGCTAGTGGTGCCGCGGAGTCACCTAGTGCAG,9810 fluorescence intensity (a.u.)
7,TTTTGCTAACTGCGGTCATCTTAAATATTCAGTATTCCTTCGGAGTCACCTAGTGCAG,8900 fluorescence intensity (a.u.)
8,AGCGTGACCATTGTATGTCCGGCATGTGCTACACGGCTTTCGGAGTCACCTAGTGCAG,9680 fluorescence intensity (a.u.)
9,GCTGAGTTTTTTTCTAGATTTTCACAAGCTGTTTCTCATACGGAGTCACCTAGTGCAG,8840 fluorescence intensity (a.u.)
10,GCACTTTGTTGCACGGTTCGCACCCCACCCCGGCGCGCGCCGGAGTCACCTAGTGCAG,9830 fluorescence intensity (a.u.)
11,CGCTCGCTGGCACATTTATCATGTTTTCATTTTAAACCATCGGAGTCACCTAGTGCAG,8600 fluorescence intensity (a.u.)
12,ACTTCTTCTTGGACTCTCCTTTTTTTTTCCGATTAATGTGCGGAGTCACCTAGTGCAG,10600 fluorescence intensity (a.u.)
13,CTGGTCAAATCCAATGCACCTCCACAAAAGCATCACACAACGGAGTCACCTAGTGCAG,8080 fluorescence intensity (a.u.)
14,GTGTTGCTGGTGAGGATGTGTTATGTGAATTTTAGTTCGACGGAGTCACCTAGTGCAG,8530 fluorescence intensity (a.u.)
15,CACTCCGCTTCCTCTCCCGCCACCTCTCCTCTTCATCTTCCGGAGTCACCTAGTGCAG,8950 fluorescence intensity (a.u.)
16,TGCTATTTGTACGTTGAATTTGTCTTTTTATATCTTCGATCGGAGTCACCTAGTGCAG,8550 fluorescence intensity (a.u.)
17,GTGCAGGATACATGTTAACTCCCTAACCTTTTCCTTTTTCCGGAGTCACCTAGTGCAG,8660 fluorescence intensity (a.u.)
18,TTCAGTGACCTACTGTACTTCGCCACCGCCTGCTTCTCGCCGGAGTCACCTAGTGCAG,9300 fluorescence intensity (a.u.)
19,GTTTGTGTTCTTGGATTGGGTTGGGTTGGGTTGGTGAGGTCGGAGTCACCTAGTGCAG,17600 fluorescence intensity (a.u.)
20,GAGGGTGTGGTGGGTGAGCGCCGTCTTGACGAGGAGCGCGCGGAGTCACCTAGTGCAG,10000 fluorescence intensity (a.u.)
21,AGTATAACTATCTGTCTTATCGGTTATCTGTACTGCGACTCGGAGTCACCTAGTGCAG,8880 fluorescence intensity (a.u.)
22,CCATCCTACTTATTATACTAAATCGTTTTGTGGATGTGTACGGAGTCACCTAGTGCAG,9660 fluorescence intensity (a.u.)
23,CTGTAAATTATTTTTCTATTGTTCTATTTATTCTTTTTCACGGAGTCACCTAGTGCAG,8030 fluorescence intensity (a.u.)
24,TAACTCACCCGCCCGACAGAGCCTCTCAATCTGCACGTCCCGGAGTCACCTAGTGCAG,8110 fluorescence intensity (a.u.)
25,ACTTATTTTACTGTGCTTCATTCAACCTTAATGGCAATGTCGGAGTCACCTAGTGCAG,12100 fluorescence intensity (a.u.)
26,CGCCGCCGACGATCTCGTCTCGCACCGCCTCTCTCTCGGTCGGAGTCACCTAGTGCAG,8160 fluorescence intensity (a.u.)
27,ATTTTCCGGCGAGGTTTGTAGGGGAGGGATCGAGGAGATGCGGAGTCACCTAGTGCAG,8620 fluorescence intensity (a.u.)
